# Library screen at single concentrations

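Assay of Toxoplasma gondii numbers, read through their beta-galactosidase reporter with a colour substrate. Tested at 50 µM. The record gives no direction; the compounds picked for IC50 retests had high values, so higher reads as fewer parasites. Of about 18,000 compounds tested this way, about 170 (0.94%) reached 50% or more in at least one test.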

Results are given as percent effect. How 0% and 100% were set is not recorded. Most values in the screen are low, and negative values occur. This is an unselected part of the compounds tested.

structure: COCCn1ccc(NC2CCN(C)C2=O)n1 (centres undefined)
percent effect: -2.364%

structure: Cc1n[nH]cc1CNC(C)Cn1cccn1 (centres undefined)
percent effect: 21.9%

structure: Clc1cnn(CCN2CCCC3(CCOCC3)C2)c1
percent effect: -6.168%

structure: COC(=O)c1ccc(C)c(CO)c1
percent effect: -0.6774%

structure: Cc1ccc(C(N)=O)cc1NCC(C)C
percent effect: 10.42%

structure: Cc1ncsc1CCC(=O)NCCN1CCCC1
percent effect: -10.83%

structure: Cc1csc(N2CCCN(C(=O)c3ccoc3)CC2)n1
percent effect: 19.59%

structure: CC(=O)NCc1ccc(-c2ccccc2CO)nc1
percent effect: -6.939%

structure: CC(NS(C)(=O)=O)C(=O)NC1Cc2ccccc2C1 (centres undefined)
percent effect: -12.18%

structure: Cc1ncccc1OCC(=O)N(C)C1CC1
percent effect: -12.63%

structure: CCOc1cc(CNCc2ccccn2)ccc1O
percent effect: 12.08%

structure: CC1CCN(CC(=O)N(C)CCc2cnn(C)c2)C1=O (centres undefined)
percent effect: -10.32%

structure: CC(C)c1cc(C(=O)NC(C#N)C2CC2)n(C)n1 (centres undefined)
percent effect: -6.573%

structure: CCNC(=O)CCN(C)Cc1nc2cccc(C)c2[nH]1
percent effect: 14.24%

structure: Cn1cc(CS(=O)(=O)c2ccccc2F)cn1
percent effect: -7.426%

structure: Cc1cc(C(=O)CSc2nnc(N)[nH]2)c(C)s1
percent effect: -5.365%

structure: CNC(=O)CCN1CCOC(c2ccc(F)c(C)c2)C1 (centres undefined)
percent effect: -7.17%

structure: CN(CC(=O)N1CCCC1)Cc1ccccc1
percent effect: -1.245%

structure: CCCn1nnnc1Cn1c(=O)oc2ccccc21
percent effect: -9.146%

structure: CN(CC1CCC1)C(=O)NC1CCC2(CC1)OCCO2
percent effect: -24.22%

structure: CC(=O)c1c(C)[nH]c(C(=O)OCC(=O)N(C)C)c1C
percent effect: 2.592%

structure: Cc1ccc(C(=O)N2CCC(N3CCN(C)CC3)C2)s1 (centres undefined)
percent effect: 2.522%

structure: CC(Sc1nncn1CCc1cccs1)C(N)=O (centres undefined)
percent effect: 6.325%

structure: CCN1CCN(S(=O)(=O)N2CCOCC2)CC1
percent effect: 5.195%

structure: Cn1ncnc1CCNC(=O)c1ccc(CN)cc1
percent effect: 8.158%

structure: CCNC(=O)CCC(=O)N(C1CC1)C(C)c1ccco1 (centres undefined)
percent effect: 3.574%

structure: CN(C)S(=O)(=O)c1ccc(CN2CCCC2(C)C)o1
percent effect: -9.315%

structure: N[C@H]1CN(C(=O)CCCc2cn[nH]c2)C[C@@H]1C1CC1
percent effect: 4.328%

structure: CN(Cc1cc2ccccc2s1)C(=O)[C@H]1C[C@@H](O)CN1
percent effect: 1.225%

structure: Cc1nn(C)c(Cl)c1C(=O)NCc1ccccn1
percent effect: -19.19%

structure: CS(=O)(=O)CC(=O)c1ccccc1F
percent effect: 14.29%

4 of the entries, repeated:

{"structure": "CCCn1nnnc1Cn1c(=O)oc2ccccc21", "percent effect": -9.146}
{"structure": "Clc1cnn(CCN2CCCC3(CCOCC3)C2)c1", "percent effect": -6.168}
{"structure": "Cc1ncsc1CCC(=O)NCCN1CCCC1", "percent effect": -10.83}
{"structure": "Cc1ncccc1OCC(=O)N(C)C1CC1", "percent effect": -12.63}

The values are deposited in ChEMBL (CHEMBL3988442, “University of Dundee, Small-Polar-MMV Screening Library” (2021)).